Assay results published in PMC5003816.
These are yes or no findings as the source states them, for the method shown. In cells and extracts the contact can be indirect. Here binding means that the protein was enriched with, or labelled near, the bait; the list need not be complete.

By UniProt entry, the sequences of proteins in these tests, tags left out. Where a name states a change or a piece, a line headed by the entry shows the natural chain unless it says otherwise.
UniProt Q9UHD9: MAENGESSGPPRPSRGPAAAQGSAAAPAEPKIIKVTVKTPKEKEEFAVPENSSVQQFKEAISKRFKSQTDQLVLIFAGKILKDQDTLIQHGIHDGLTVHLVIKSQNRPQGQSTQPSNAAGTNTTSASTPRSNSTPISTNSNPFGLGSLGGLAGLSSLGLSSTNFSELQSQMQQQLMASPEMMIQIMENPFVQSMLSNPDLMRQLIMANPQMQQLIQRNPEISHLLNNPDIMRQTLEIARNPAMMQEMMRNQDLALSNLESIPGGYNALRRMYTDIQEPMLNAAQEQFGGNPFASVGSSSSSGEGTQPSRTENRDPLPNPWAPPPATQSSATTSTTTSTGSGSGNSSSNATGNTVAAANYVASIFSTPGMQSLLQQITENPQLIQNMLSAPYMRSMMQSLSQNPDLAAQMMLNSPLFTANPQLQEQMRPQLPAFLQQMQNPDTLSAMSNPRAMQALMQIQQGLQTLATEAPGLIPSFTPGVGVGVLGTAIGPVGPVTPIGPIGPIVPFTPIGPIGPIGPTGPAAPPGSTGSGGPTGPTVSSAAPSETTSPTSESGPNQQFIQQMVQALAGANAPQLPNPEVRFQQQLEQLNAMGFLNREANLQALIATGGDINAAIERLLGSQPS
UniProt P60900: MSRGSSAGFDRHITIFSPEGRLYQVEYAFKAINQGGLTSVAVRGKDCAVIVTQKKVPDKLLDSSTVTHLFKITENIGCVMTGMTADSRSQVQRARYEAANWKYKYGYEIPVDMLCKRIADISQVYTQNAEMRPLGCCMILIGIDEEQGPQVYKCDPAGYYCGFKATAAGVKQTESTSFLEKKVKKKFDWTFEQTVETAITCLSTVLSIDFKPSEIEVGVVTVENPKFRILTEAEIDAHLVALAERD
UniProt P11142: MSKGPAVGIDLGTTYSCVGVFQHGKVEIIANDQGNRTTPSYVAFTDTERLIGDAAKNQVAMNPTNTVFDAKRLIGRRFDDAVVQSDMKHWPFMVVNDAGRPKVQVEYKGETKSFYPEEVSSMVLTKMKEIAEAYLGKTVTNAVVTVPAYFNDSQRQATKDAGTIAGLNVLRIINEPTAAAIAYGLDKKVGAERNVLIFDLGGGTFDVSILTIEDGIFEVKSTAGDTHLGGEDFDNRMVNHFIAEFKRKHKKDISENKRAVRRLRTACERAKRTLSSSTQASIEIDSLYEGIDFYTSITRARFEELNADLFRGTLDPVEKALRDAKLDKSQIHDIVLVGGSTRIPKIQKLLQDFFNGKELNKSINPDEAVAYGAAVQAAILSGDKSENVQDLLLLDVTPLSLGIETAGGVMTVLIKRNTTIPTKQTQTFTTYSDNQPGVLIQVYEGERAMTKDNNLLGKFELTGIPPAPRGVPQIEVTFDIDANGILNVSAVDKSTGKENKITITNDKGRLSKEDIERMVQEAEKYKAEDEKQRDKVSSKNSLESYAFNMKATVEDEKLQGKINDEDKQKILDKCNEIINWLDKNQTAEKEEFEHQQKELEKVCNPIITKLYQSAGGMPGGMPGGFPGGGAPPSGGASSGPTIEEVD

Assays:
[1] = target: FLAG-UBQLN2 WT (human) (UniProt Q9UHD9); assay: affinity purification with mass spectrometry; SILAC proteomics on FLAG IP from cells stably expressing inducible FLAG-UBQLN2 WT or P506T
[2] = target: FLAG-UBQLN2 P506T (human) (UniProt Q9UHD9); assay: as above

binding [1] | binding [2] | Substance
binds | binds | PSMA6 (from UniProt P60900 1-246)
binds | – | HSPA8 (endogenous in HEK293) (from UniProt P11142 1-646)
